According to the supplement of paper PMC10338343:
± gives the standard deviation. Only a part is listed here, and it is no random draw. Many of these values have a large error.

Each sequence was assayed on MILI (PIWIL2) piRISC loaded with piRNA #1 (26 nt) (assay: pre-steady-state target cleavage rate (min^-1); MIWI and MILI are mouse PIWI proteins and EfPiwi is from a freshwater sponge; tags in brackets are library labels; higher = faster piRNA-guided slicing of the target). Conditions: guide: piRNA #1 5'p-UGAGGUAGUAGGUUGUAUAGUAUCCA; auxiliary factor: 500 nM mouse GTSF1.
Outline: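 A transcribed, DNA-blocked target RNA library […] was incubated at 33 °C for 0–8 or 0–960 min with 1 nM active affinity-purified piRISC carrying one synthetic guide, in HEPES–potassium acetate buffer with or without 500 nM GTSF1 partner protein. Uncleaved targets were then sequenced and normalised to depth and to weakly complementary targets. Data from three trials were pooled, with k3 capped at 0.0001 min^-1, and a burst-and-steady-state fit yielded the pre-steady-state cleavage rate.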
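Also: 1 nM active piRISC with 0.1 nM target library at 33 °C single turnover.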

**Q.** How did the “pre-steady-state target cleavage rate” value turn out when GGAGACCUAUCUAUACAUCCAACUACCUCA was run?
**A.** The value was 0.00941 ± 0.0034.

**Q.** Which “pre-steady-state target cleavage rate” value does the source give for GGAGACCUAUGAUAUGUUGGUACUCCCUCA here?
**A.** The value was 0.00032 ± 0.015.

**Q.** How did the “pre-steady-state target cleavage rate” value turn out when GGAGACCUAUGUAUACAUGGUACUACCUCA was run?
**A.** Its value is 0.000997 ± 0.0049.

**Q.** GGAGACCUAACUAUACAACGCUACUACCUCA was tested. Which “pre-steady-state target cleavage rate” value did it give?
**A.** Its value is 0.000483 ± 0.023.

**Q.** With GGAGACCUAUGAUAACUACCUACUACGUCA as the sequence, how does the “pre-steady-state target cleavage rate” value read?
**A.** The value was 0.000761 ± 0.0078.

**Q.** With GGAGACCUAUGAUAACAAGCUACUAGCUCA as the sequence, how does the “pre-steady-state target cleavage rate” value read?
**A.** Its value is 0.00279 ± 0.0036.

**Q.** With GGAGACCUAUGAUUACAACCUACUACAUCA as the sequence, how does the “pre-steady-state target cleavage rate” value read?
**A.** Its value is 0.00185 ± 0.0035.

**Q.** GGAGAGGAUACUAUACAACCUUACUACCUCA was tested. Which “pre-steady-state target cleavage rate” value did it give?
**A.** Its value is 0.00257 ± 0.0029.

**Q.** Which “pre-steady-state target cleavage rate” value does the source give for GGAGACCUAUGAUUUCAACGUACUACCUCA here?
**A.** The value was 0.00221 ± 0.0036.

**Q.** GGAGACCUAUGAAUACAACCUACAAGCUCA was tested. Which “pre-steady-state target cleavage rate” value did it give?
**A.** Its value is 0.00137 ± 0.0043.

**Q.** With GGAGACCUAACUAUACAUCCAACUACCUCA as the sequence, how does the “pre-steady-state target cleavage rate” value read?
**A.** The value was 0.00526 ± 0.0061.

**Q.** GGAGAGGAUACUAUACUUGCUACUACCUCA was tested. Which “pre-steady-state target cleavage rate” value did it give?
**A.** The value was 0.0407 ± 0.0049.

**Q.** GGAGACCUAUGAUAACAACGUACUACGUCA was tested. Which “pre-steady-state target cleavage rate” value did it give?
**A.** Its value is 0.000669 ± 0.0075.

**Q.** “GGAGAGGAUACUAUACAACGAUGAUGGAGA [g12:g25:cont:t1A]” was tested. Which “pre-steady-state target cleavage rate” value did it give?
**A.** Its value is 0.000125 ± 0.012.

**Q.** For GGAGACCUAUGAUUACAACCUAGCUACCUCA, which “pre-steady-state target cleavage rate” value is on record?
**A.** The value was 0.00386 ± 0.0032.

**Q.** For “GGAGUGGAUACUAUACAACGAUGAUGGAGA [g12:g26:cont:t1A]”, which “pre-steady-state target cleavage rate” value is on record?
**A.** Its value is 0.000514 ± 0.0092.

**Q.** With GGAGACCUUACUAUACAUCCUACUAGCUCA as the sequence, how does the “pre-steady-state target cleavage rate” value read?
**A.** The value was 0.2 ± 0.024.

**Q.** Which “pre-steady-state target cleavage rate” value does the source give for GGAGACCUAUGAUAUCAACCAACUACCUCA here?
**A.** Its value is 0.00104 ± 0.0048.

**Q.** Which “pre-steady-state target cleavage rate” value does the source give for GGAGACCUAUGAUAUGUUCCGACUACCUCA here?
**A.** Its value is 0.000239 ± 0.015.

**Q.** How did the “pre-steady-state target cleavage rate” value turn out when GGAGACCUAUGAUAUCAACCUACUGCCUCA was run?
**A.** The value was 0.00191 ± 0.0045.

**Q.** With GGAGACCUAUGAAUACAACCUACUGCCUCA as the sequence, how does the “pre-steady-state target cleavage rate” value read?
**A.** The value was 0.0052 ± 0.0029.

**Q.** Which “pre-steady-state target cleavage rate” value does the source give for GGAGACCUAACUAUACAACCUUGUACCUCA here?
**A.** Its value is 0.000616 ± 0.021.

**Q.** How did the “pre-steady-state target cleavage rate” value turn out when GGAGACGAUACUAUACAUGCUACUACCUCA was run?
**A.** Its value is 0.115 ± 0.01.
